The values below come from PMC7210939, “ABCG2 transports anticancer drugs via a closed-to-open switch” (Nature Communications, 2020).

In experiment [1] the target is T1, Human ABCG2, nanodisc reconstituted (human), Q9UNQ0.
T1 chain: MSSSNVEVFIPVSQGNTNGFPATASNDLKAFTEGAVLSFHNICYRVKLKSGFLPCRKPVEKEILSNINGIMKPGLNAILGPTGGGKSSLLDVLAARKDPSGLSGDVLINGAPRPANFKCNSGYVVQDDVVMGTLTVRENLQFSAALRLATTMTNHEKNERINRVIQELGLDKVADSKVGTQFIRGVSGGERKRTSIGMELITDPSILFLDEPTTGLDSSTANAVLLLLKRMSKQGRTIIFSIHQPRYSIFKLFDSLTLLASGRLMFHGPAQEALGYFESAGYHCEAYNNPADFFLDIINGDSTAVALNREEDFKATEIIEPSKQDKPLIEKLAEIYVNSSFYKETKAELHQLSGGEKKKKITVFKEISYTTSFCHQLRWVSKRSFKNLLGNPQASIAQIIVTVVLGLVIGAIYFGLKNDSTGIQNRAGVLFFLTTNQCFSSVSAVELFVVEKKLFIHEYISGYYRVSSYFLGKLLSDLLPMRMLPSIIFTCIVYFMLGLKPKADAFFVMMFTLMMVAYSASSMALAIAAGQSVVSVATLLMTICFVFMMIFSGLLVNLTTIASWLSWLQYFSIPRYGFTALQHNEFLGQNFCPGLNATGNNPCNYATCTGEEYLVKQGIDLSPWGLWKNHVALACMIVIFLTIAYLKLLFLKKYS
The experiment in a line: cryo-EM structure; single-particle cryo-EM of nanodisc reconstituted ABCG2 (~1 mg/mL, 25 mM Tris pH 8, 150 mM NaCl), apo or with 75 uM imatinib, MXN or SN38; C2 symmetry applied; both purified. The settings on record: remark: other sources report otherwise.

Experiment [2] has as its target T2, Wild-type human ABCG2 with an N-terminal GFP tag (human), Q9UNQ0.
T2 chain: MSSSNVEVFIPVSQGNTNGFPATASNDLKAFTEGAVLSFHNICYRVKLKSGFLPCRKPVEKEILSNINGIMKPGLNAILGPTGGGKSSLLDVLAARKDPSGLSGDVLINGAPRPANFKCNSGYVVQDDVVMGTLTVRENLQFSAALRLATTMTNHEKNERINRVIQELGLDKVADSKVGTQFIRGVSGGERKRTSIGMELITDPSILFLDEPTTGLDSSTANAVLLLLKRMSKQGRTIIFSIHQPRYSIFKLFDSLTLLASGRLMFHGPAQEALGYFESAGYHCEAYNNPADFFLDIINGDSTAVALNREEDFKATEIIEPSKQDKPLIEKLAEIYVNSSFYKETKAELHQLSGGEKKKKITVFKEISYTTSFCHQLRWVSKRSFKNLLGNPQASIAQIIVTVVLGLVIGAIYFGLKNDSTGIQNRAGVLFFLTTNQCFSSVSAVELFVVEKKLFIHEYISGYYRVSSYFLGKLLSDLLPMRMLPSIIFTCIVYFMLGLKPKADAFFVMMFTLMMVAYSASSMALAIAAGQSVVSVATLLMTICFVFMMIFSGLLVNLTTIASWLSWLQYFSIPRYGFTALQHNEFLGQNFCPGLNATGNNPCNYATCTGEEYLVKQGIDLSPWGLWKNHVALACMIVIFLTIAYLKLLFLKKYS
Put plainly: cross-linking; disulfide cross-linking in intact HEK293F cells, native disulfide or oxidation with 300 uM copper phenanthroline for 45 min, with or without Ko143, orthovanadate, imatinib, MXN or SN38; non-reducing SDS-PAGE with in-gel GFP fluorescence. Particulars: remark: other sources report otherwise.

The target of experiment [3] is GFP-ABCG2 Val534Cys in a Cys603Ser background (human) (UniProt Q9UNQ0). Described as above.
In experiment [4] the target is GFP-ABCG2 Ala537Cys in a Cys603Ser background (human) (UniProt Q9UNQ0). The experiment is described as above.

These are yes or no findings as the source states them, for the method shown. For some of these results: Binding seen in cells or lysates may run through a third protein. Some binding calls cover weakened binding; strength is not graded here. For some of these results: Where a sequence is shown, tags or fusion partners need not be part of it.

B1: Human ABCG2, nanodisc reconstituted, Q9UNQ0 1-655 (protein)
chain: MSSSNVEVFIPVSQGNTNGFPATASNDLKAFTEGAVLSFHNICYRVKLKSGFLPCRKPVEKEILSNINGIMKPGLNAILGPTGGGKSSLLDVLAARKDPSGLSGDVLINGAPRPANFKCNSGYVVQDDVVMGTLTVRENLQFSAALRLATTMTNHEKNERINRVIQELGLDKVADSKVGTQFIRGVSGGERKRTSIGMELITDPSILFLDEPTTGLDSSTANAVLLLLKRMSKQGRTIIFSIHQPRYSIFKLFDSLTLLASGRLMFHGPAQEALGYFESAGYHCEAYNNPADFFLDIINGDSTAVALNREEDFKATEIIEPSKQDKPLIEKLAEIYVNSSFYKETKAELHQLSGGEKKKKITVFKEISYTTSFCHQLRWVSKRSFKNLLGNPQASIAQIIVTVVLGLVIGAIYFGLKNDSTGIQNRAGVLFFLTTNQCFSSVSAVELFVVEKKLFIHEYISGYYRVSSYFLGKLLSDLLPMRMLPSIIFTCIVYFMLGLKPKADAFFVMMFTLMMVAYSASSMALAIAAGQSVVSVATLLMTICFVFMMIFSGLLVNLTTIASWLSWLQYFSIPRYGFTALQHNEFLGQNFCPGLNATGNNPCNYATCTGEEYLVKQGIDLSPWGLWKNHVALACMIVIFLTIAYLKLLFLKKYS
As for B1, in experiment [1], the binding result is given as “binds”.

B2: Wild-type human ABCG2 with an N-terminal GFP tag, Q9UNQ0 1-655 (protein)
chain: MSSSNVEVFIPVSQGNTNGFPATASNDLKAFTEGAVLSFHNICYRVKLKSGFLPCRKPVEKEILSNINGIMKPGLNAILGPTGGGKSSLLDVLAARKDPSGLSGDVLINGAPRPANFKCNSGYVVQDDVVMGTLTVRENLQFSAALRLATTMTNHEKNERINRVIQELGLDKVADSKVGTQFIRGVSGGERKRTSIGMELITDPSILFLDEPTTGLDSSTANAVLLLLKRMSKQGRTIIFSIHQPRYSIFKLFDSLTLLASGRLMFHGPAQEALGYFESAGYHCEAYNNPADFFLDIINGDSTAVALNREEDFKATEIIEPSKQDKPLIEKLAEIYVNSSFYKETKAELHQLSGGEKKKKITVFKEISYTTSFCHQLRWVSKRSFKNLLGNPQASIAQIIVTVVLGLVIGAIYFGLKNDSTGIQNRAGVLFFLTTNQCFSSVSAVELFVVEKKLFIHEYISGYYRVSSYFLGKLLSDLLPMRMLPSIIFTCIVYFMLGLKPKADAFFVMMFTLMMVAYSASSMALAIAAGQSVVSVATLLMTICFVFMMIFSGLLVNLTTIASWLSWLQYFSIPRYGFTALQHNEFLGQNFCPGLNATGNNPCNYATCTGEEYLVKQGIDLSPWGLWKNHVALACMIVIFLTIAYLKLLFLKKYS
On to B2, for which the binding result in experiment [2] is recorded as “binds”.

B3: GFP-ABCG2 Val534Cys in a Cys603Ser background (protein, UniProt Q9UNQ0 1-655)
chain: MSSSNVEVFIPVSQGNTNGFPATASNDLKAFTEGAVLSFHNICYRVKLKSGFLPCRKPVEKEILSNINGIMKPGLNAILGPTGGGKSSLLDVLAARKDPSGLSGDVLINGAPRPANFKCNSGYVVQDDVVMGTLTVRENLQFSAALRLATTMTNHEKNERINRVIQELGLDKVADSKVGTQFIRGVSGGERKRTSIGMELITDPSILFLDEPTTGLDSSTANAVLLLLKRMSKQGRTIIFSIHQPRYSIFKLFDSLTLLASGRLMFHGPAQEALGYFESAGYHCEAYNNPADFFLDIINGDSTAVALNREEDFKATEIIEPSKQDKPLIEKLAEIYVNSSFYKETKAELHQLSGGEKKKKITVFKEISYTTSFCHQLRWVSKRSFKNLLGNPQASIAQIIVTVVLGLVIGAIYFGLKNDSTGIQNRAGVLFFLTTNQCFSSVSAVELFVVEKKLFIHEYISGYYRVSSYFLGKLLSDLLPMRMLPSIIFTCIVYFMLGLKPKADAFFVMMFTLMMVAYSASSMALAIAAGQSVCSVATLLMTICFVFMMIFSGLLVNLTTIASWLSWLQYFSIPRYGFTALQHNEFLGQNFCPGLNATGNNPSNYATCTGEEYLVKQGIDLSPWGLWKNHVALACMIVIFLTIAYLKLLFLKKYS
On to B3, for which the binding result in experiment [3] was “binds”.

B4: GFP-ABCG2 Ala537Cys in a Cys603Ser background (protein, UniProt Q9UNQ0 1-655)
chain: MSSSNVEVFIPVSQGNTNGFPATASNDLKAFTEGAVLSFHNICYRVKLKSGFLPCRKPVEKEILSNINGIMKPGLNAILGPTGGGKSSLLDVLAARKDPSGLSGDVLINGAPRPANFKCNSGYVVQDDVVMGTLTVRENLQFSAALRLATTMTNHEKNERINRVIQELGLDKVADSKVGTQFIRGVSGGERKRTSIGMELITDPSILFLDEPTTGLDSSTANAVLLLLKRMSKQGRTIIFSIHQPRYSIFKLFDSLTLLASGRLMFHGPAQEALGYFESAGYHCEAYNNPADFFLDIINGDSTAVALNREEDFKATEIIEPSKQDKPLIEKLAEIYVNSSFYKETKAELHQLSGGEKKKKITVFKEISYTTSFCHQLRWVSKRSFKNLLGNPQASIAQIIVTVVLGLVIGAIYFGLKNDSTGIQNRAGVLFFLTTNQCFSSVSAVELFVVEKKLFIHEYISGYYRVSSYFLGKLLSDLLPMRMLPSIIFTCIVYFMLGLKPKADAFFVMMFTLMMVAYSASSMALAIAAGQSVVSVCTLLMTICFVFMMIFSGLLVNLTTIASWLSWLQYFSIPRYGFTALQHNEFLGQNFCPGLNATGNNPSNYATCTGEEYLVKQGIDLSPWGLWKNHVALACMIVIFLTIAYLKLLFLKKYS
On to B4, for which the binding result in experiment [4] was “binds”.
